Measurements taken from paper PMC7862700.
Only a part is listed here, and it is no random draw. At the low end of the ranking the order means little.

The chains behind the UniProt entries cited, without tags or fusion partners. Where a name states a change or a piece, a line headed by the entry shows the natural chain unless it says otherwise.
UniProt Q9Y603: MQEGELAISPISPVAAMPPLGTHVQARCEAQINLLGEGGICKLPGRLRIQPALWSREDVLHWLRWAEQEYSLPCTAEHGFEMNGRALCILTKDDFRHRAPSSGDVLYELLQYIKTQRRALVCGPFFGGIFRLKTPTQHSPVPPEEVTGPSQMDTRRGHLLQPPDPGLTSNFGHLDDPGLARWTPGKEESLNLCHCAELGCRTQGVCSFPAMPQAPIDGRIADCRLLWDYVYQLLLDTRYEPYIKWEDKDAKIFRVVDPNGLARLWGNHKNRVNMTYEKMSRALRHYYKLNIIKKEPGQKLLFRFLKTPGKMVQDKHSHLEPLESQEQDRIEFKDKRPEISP
UniProt P41212: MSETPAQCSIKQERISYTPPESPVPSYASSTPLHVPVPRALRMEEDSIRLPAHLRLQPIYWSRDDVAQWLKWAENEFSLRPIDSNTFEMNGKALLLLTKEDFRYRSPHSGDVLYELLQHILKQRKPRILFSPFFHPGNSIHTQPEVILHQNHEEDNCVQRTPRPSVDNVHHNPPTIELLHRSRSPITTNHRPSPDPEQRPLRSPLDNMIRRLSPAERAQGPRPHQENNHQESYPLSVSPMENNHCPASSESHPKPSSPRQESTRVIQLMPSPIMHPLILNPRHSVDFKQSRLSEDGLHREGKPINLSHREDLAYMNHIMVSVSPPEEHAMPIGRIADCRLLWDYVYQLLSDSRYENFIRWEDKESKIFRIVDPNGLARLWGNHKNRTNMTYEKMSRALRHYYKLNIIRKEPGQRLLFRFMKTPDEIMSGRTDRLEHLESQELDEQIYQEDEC

target: T1, ELF3 (UniProt P78545); assay: DAPPL (digital affinity profiling via proximity ligation, sequencing); conditions: 10 mM Tris-HCl pH 7.5, 50 mM NaCl, 1 mM DTT, 4% glycerol, room temperature, 30 min; GST-TFs on glutathione beads, 16-mer random dsDNA library, 0.1% …; high values mean tight binding; double strand, one strand shown; scale: fold enrichment (6-mer frequency, TF over GST control)
T1 sequence: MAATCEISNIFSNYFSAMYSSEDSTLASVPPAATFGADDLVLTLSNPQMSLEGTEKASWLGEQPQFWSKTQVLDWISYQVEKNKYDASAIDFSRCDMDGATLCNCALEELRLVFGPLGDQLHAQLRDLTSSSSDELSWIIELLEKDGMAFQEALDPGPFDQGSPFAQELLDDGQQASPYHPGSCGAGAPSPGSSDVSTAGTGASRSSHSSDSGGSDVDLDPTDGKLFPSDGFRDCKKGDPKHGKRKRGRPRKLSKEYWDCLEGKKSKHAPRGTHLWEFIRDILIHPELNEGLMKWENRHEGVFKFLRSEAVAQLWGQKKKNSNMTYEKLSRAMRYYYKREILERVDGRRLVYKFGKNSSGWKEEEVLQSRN

| Sequence | binding signal |
| --- | --- |
| GCACCA | 0.909 |
| CGGGGC | 0.482 |
| ATCGTA | 0.872 |
| TGAGTT | 0.415 |
| AAGACA | 0.979 |
| GGATGA | 0.859 |
| GTAGTA | 0.956 |
| ACCAGA | 0.98 |
| GGGAAT | 0.838 |
| GACAAA | 0.833 |
| CGGTTG | 0.701 |
| CCAGAG | 0.748 |
| GCACGT | 0.76 |
| ACTGTG | 0.52 |
| GCAGTG | 0.588 |
| AGGCCT | 0.978 |
| CAGCGA | 0.842 |
| TGAGAT | 0.747 |
| CGGTAG | 0.857 |
| GGGCAC | 0.835 |

| Sequence | binding signal |
| --- | --- |
| GGCTGA | 0.79 |
| CAGTCA | 0.474 |
| GTGTCG | 0.595 |
| CAGAGT | 0.709 |
| GGCGAT | 0.8 |
| GCTGTG | 0.778 |
| GACGGA | 0.588 |
| GCATGC | 0.986 |
| GGCGGT | 0.42 |
| GAAGGA | 0.779 |
| CGGCGG | 0.523 |
| GCCCAG | 0.682 |
| CTAGAG | 0.995 |
| GAACAG | 0.932 |
| GCGCGG | 0.885 |
| GGGCTG | 0.927 |
| ACGGGT | 0.853 |
| CAGCAA | 0.909 |
| CAAGGA | 0.903 |

target: ETV7 (UniProt Q9Y603); assay: as above; conditions: 10 mM Tris-HCl pH 7.5, 50 mM NaCl, 1 mM DTT, 4% glycerol, room temperature, 30 min; GST-TFs on glutathione beads, 16-mer random dsDNA library, 0.1% …; high values mean tight binding; double strand, one strand shown; scale: fold enrichment (6-mer frequency, TF over GST control)

| Sequence | binding signal |
| --- | --- |
| GCACCA | 0.831 |
| CGGGGC | 0.663 |
| ATCGTA | 0.877 |
| TGAGTT | 0.489 |
| ACCAGA | 0.907 |
| GGGAAT | 0.846 |
| CGGTTG | 0.757 |
| CCAGAG | 0.67 |
| GCACGT | 0.858 |
| ACTGTG | 0.441 |
| GCAGTG | 0.617 |
| TGAGAT | 0.763 |
| CGGTAG | 0.763 |
| GGGCAC | 0.819 |
| GGCTGA | 0.684 |
| CAGTCA | 0.576 |
| GTGTCG | 0.683 |
| CAGAGT | 0.764 |
| GGCGAT | 0.771 |
| GCTGTG | 0.734 |
| GACGGA | 0.519 |
| GCATGC | 0.801 |
| GGCGGT | 0.443 |
| GAAGGA | 0.71 |
| CGGCGG | 0.595 |
| GCCCAG | 0.791 |
| CTAGAG | 0.857 |
| CAAGGA | 0.744 |

target: ETV6 (UniProt P41212); assay: as above; conditions: 10 mM Tris-HCl pH 7.5, 50 mM NaCl, 1 mM DTT, 4% glycerol, room temperature, 30 min; GST-TFs on glutathione beads, 16-mer random dsDNA library, 0.1% …; high values mean tight binding; double strand, one strand shown; scale: fold enrichment (6-mer frequency, TF over GST control)

| Sequence | binding signal |
| --- | --- |
| GCACCA | 0.878 |
| CGGGGC | 0.599 |
| ATCGTA | 0.907 |
| TGAGTT | 0.426 |
| AAGACA | 0.983 |
| GGATGA | 0.937 |
| GTAGTA | 0.94 |
| ACCAGA | 0.821 |
| GGGAAT | 0.786 |
| GACAAA | 0.953 |
| CGGTTG | 0.802 |
| CCAGAG | 0.668 |
| GCACGT | 0.772 |
| ACTGTG | 0.509 |
| GCAGTG | 0.582 |
| AGGCCT | 0.929 |
| CAGCGA | 0.796 |
| TGAGAT | 0.624 |
| CGGTAG | 0.725 |
| GGGCAC | 0.769 |

| Sequence | binding signal |
| --- | --- |
| GGCTGA | 0.737 |
| CAGTCA | 0.492 |
| GTGTCG | 0.588 |
| CAGAGT | 0.635 |
| GGCGAT | 0.81 |
| GCTGTG | 0.691 |
| GACGGA | 0.54 |
| GCATGC | 0.913 |
| GGCGGT | 0.417 |
| GAAGGA | 0.749 |
| CGGCGG | 0.596 |
| GCCCAG | 0.735 |
| CTAGAG | 0.816 |
| GAACAG | 0.9 |
| GCGCGG | 0.821 |
| GGGCTG | 0.924 |
| ACGGGT | 0.763 |
| CAGCAA | 0.924 |
| CAAGGA | 0.837 |
